Experimental findings from paper doi:10.1101/2025.10.26.684634 are described below.

Assay in all cases: cross-linking
The target in assay [1] is Recombinant His6-ExoU (Pseudomonas aeruginosa Exotoxin U, full length) (Pseudomonas aeruginosa) (UniProt O34208).
Assay [2] addresses T1, Recombinant His6-ExoU (Pseudomonas aeruginosa Exotoxin U, full length) (Pseudomonas aeruginosa), O34208.
T1 chain: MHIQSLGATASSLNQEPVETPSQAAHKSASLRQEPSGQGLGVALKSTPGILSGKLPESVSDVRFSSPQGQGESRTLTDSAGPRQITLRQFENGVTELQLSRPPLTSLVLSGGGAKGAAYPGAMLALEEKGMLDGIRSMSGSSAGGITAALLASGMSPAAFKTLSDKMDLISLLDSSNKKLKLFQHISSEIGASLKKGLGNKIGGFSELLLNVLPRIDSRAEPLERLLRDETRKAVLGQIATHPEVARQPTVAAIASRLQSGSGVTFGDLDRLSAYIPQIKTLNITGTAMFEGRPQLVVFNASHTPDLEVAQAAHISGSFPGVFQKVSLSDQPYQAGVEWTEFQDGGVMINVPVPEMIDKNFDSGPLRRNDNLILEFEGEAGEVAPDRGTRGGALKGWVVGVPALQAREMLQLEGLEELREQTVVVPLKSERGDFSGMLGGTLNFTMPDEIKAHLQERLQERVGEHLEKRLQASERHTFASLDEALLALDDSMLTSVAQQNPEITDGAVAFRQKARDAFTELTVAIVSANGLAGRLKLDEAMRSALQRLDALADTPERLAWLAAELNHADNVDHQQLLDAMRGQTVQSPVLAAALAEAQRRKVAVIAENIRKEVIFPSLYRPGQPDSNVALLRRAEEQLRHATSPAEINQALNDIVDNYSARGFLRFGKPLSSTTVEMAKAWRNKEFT
The note with it: remark: other sources report otherwise.

In assay [3] the target is T1, Recombinant His6-ExoU (Pseudomonas …). The note with it: remark: other sources report otherwise.
The target is the same in assay [4]. The note with it: remark: other sources report otherwise.

No constants are given. Whether binding was seen depends on the method and setting. Some results given as binding are weak or reduced against the parent protein; the word gives no strength. For some of these results: Tags and fused reporters may be left off the sequences shown.

“Recombinant His6-ExoU (Pseudomonas aeruginosa Exotoxin U, full length) (from UniProt O34208 1-687) (enzyme)”: the binding entry in assay [1] is on record as “binds weakly”.

B1: Recombinant His6-ExoU (Pseudomonas aeruginosa Exotoxin U, full length), O34208 1-687 (enzyme)
chain: MHIQSLGATASSLNQEPVETPSQAAHKSASLRQEPSGQGLGVALKSTPGILSGKLPESVSDVRFSSPQGQGESRTLTDSAGPRQITLRQFENGVTELQLSRPPLTSLVLSGGGAKGAAYPGAMLALEEKGMLDGIRSMSGSSAGGITAALLASGMSPAAFKTLSDKMDLISLLDSSNKKLKLFQHISSEIGASLKKGLGNKIGGFSELLLNVLPRIDSRAEPLERLLRDETRKAVLGQIATHPEVARQPTVAAIASRLQSGSGVTFGDLDRLSAYIPQIKTLNITGTAMFEGRPQLVVFNASHTPDLEVAQAAHISGSFPGVFQKVSLSDQPYQAGVEWTEFQDGGVMINVPVPEMIDKNFDSGPLRRNDNLILEFEGEAGEVAPDRGTRGGALKGWVVGVPALQAREMLQLEGLEELREQTVVVPLKSERGDFSGMLGGTLNFTMPDEIKAHLQERLQERVGEHLEKRLQASERHTFASLDEALLALDDSMLTSVAQQNPEITDGAVAFRQKARDAFTELTVAIVSANGLAGRLKLDEAMRSALQRLDALADTPERLAWLAAELNHADNVDHQQLLDAMRGQTVQSPVLAAALAEAQRRKVAVIAENIRKEVIFPSLYRPGQPDSNVALLRRAEEQLRHATSPAEINQALNDIVDNYSARGFLRFGKPLSSTTVEMAKAWRNKEFT
As for B1, the binding entry in assay [2], in assay [3] and in assay [4] was “binds” each time.
